Test: general procedure: solution-phase peptide synthesis; OTcp active ester with HOBt and N-ethylmorpholine; HOBt/dicyclohexylcarbodiimide
Settings: HCl

Row | Substance | step yield (late stage modification step) | step yield (coupling step)
1 | HCl.H-Glu(OBu^t)-Asp(OBu^t)-Glu(OBu^t)-Asp(OBu^t)-OBu^t | 97.5% | 
2 | HCl.H-Glu(OBu^t)-Glu(OBu^t)-Glu(OBu^t)-Glu(OBu^t)-OBu^t | 98% | 
3 | Z-Glu(OBu^t)-Asp(OBu^t)-Glu(OBu^t)-Asp(OBu^t)-OBu^t |  | 80%
4 | Z-Glu(OBu^t)-Glu(OBu^t)-Glu(OBu^t)-Glu(OBu^t)-OBu^t |  | 86%

From patent US3953417 (dated 1976)
